PubChem BioAssay AID624297 (National Center for Advancing Translational Sciences (NCATS), 2012)
Several values for one entry are separate records, joined by “and”; a condition that tells them apart may be missing. Identical values can stand only once. About 6,200 (1.8%) of roughly 340,000 compounds were called active. This list was built around the results that the source calls inconclusive (neither active nor inactive); the mix of calls is not that of the screen. The call rests on the fitted dose curve; in most records, active means well fitted activation curve with a large enough effect; inconclusive means small, poorly fitted or top-dose-only effect; inactive means no such curve, though single readings can be large or run the other way. Potencies beside an inconclusive call are fits to weak or partial responses and may not hold up.

Experiment: A quantitative high throughput screen for small molecules that induce DNA re-replication in SW480 colon adenocarcinoma cells. Further: nearly all actives have a fitted effect of over 55% in size.
Settings: Hoechst DNA content imaging, 48 h; series mostly up to 46.1 µM
In short: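 Quantitative HTS format with DMSO vehicle controls; 48 hr drug incubation at 37 C, then 40 min Hoechst staining and scanning imager measurement at 405 nm excitation.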
Potency means the concentration at half of the fitted maximal effect.

Structure (SMILES)	Potency
Cc1onc(-c2c(Cl)cccc2Cl)c1C(=O)NCc1ccc(S(N)(=O)=O)cc1	inactive
CCN(CC)CC#CCC1(O)c2ccccc2-c2ccccc21	inconclusive: 6.51 µM [activator, single point]
CC12CN3CC(C)(CN(C1)C3c1ccccc1Cl)C2O (centres undefined)	inconclusive: 3.26 µM [activator, partial curve, poor fit]
COc1ccc(OC)c(-c2csc(NC(=O)C3CSC4(C)CCC(=O)N34)n2)c1 (centres undefined)	inconclusive: 20.6 µM [activator, single point]
COc1ccc(CCNc2oc(-c3cccc4ccccc34)nc2P(=O)(OC)OC)cc1OC	inconclusive: 20.6 µM [activator, single point]
CCOC(=O)C1(CC2CCCCO2)CCN(C(=O)Nc2ccc(C(=O)OC)cc2)CC1 (centres undefined)	inconclusive: 9.2 µM [activator, single point]
CC(C)c1ccc2c(c1)C(c1cccs1)=NNC(c1ccncc1)=N2	inactive
COc1ccc(/C=N\NS(=O)(=O)c2ccc(Cl)cc2)cc1COc1ccccc1[N+](=O)[O-]	inconclusive: 32.6 µM [activator, partial curve, poor fit]
O=C(CN1C(=O)C2CCCCC2C1=O)Nc1cc(C(F)(F)F)ccc1N1CCCC1 (centres undefined)	inactive
CCOc1ccc(/C=N/NC(=O)c2[nH]ncc2Br)c(O)c1	inconclusive: 0.92 µM [activator, full curve, poor fit]
[O-]c1c[n+](-c2ccc(-[n+]3cc([O-])on3)cc2)no1	inconclusive: 16.4 µM [activator, single point]
O=C(Nc1ccc(N2CCCC2)cc1)c1cc([N+](=O)[O-])ccc1N1CCOCC1	inconclusive: 29.1 µM [activator, single point]
CC1=NN(C(=O)c2csc(C)c2)C(O)(C(F)(F)F)C1 (centres undefined)	inactive
[N-]=[N+]=NCC/C=C\C1NS(=O)(=O)OCC1O (centres undefined)	inactive
CSc1ccc(CN(C)C(=O)C(c2ccccc2)c2ccccc2)cc1	inconclusive: 32.6 µM [activator, partial curve, poor fit]
CCCN1CNC(=S)N(c2ccc(C(=O)OCC)cc2)C1	inactive
Cc1ccc(Nc2nc(CSc3nnc(-c4ccc(F)cc4)n3C)cs2)cc1	inconclusive: 29.1 µM [activator, partial curve, poor fit]
O=S(=O)(CCSc1ccccn1)c1nc2ccccc2s1	inconclusive: 20.6 µM [activator, partial curve, poor fit]
O=C(N/C=C/c1ccccc1)c1ccccc1	inactive
O=S(=O)(NCC1CCCO1)c1ccc2ccccc2c1 (centres undefined)	inconclusive: 23.1 µM [activator, single point]
COc1cc(C2NC(=O)NC(c3ccccc3)=C2C(C)=O)cc([N+](=O)[O-])c1O (centres undefined)	inactive
C=C[C@]1(C)C[C@@H](OC(=O)CSCCN(CC)CC)[C@]2(C)C(C)CC[C@]3(CCC(=O)[C@H]32)[C@@H](C)[C@@H]1O (some centres undefined)	inactive and inconclusive: 35.5 µM [activator, partial curve, poor fit]
CCOc1ccccc1NC(=O)C1CCCCN1S(=O)(=O)c1ccc(F)cc1 (centres undefined)	inactive

Structure (SMILES)	Potency
Cc1cccc(-n2c(SCC(=O)NCc3ccc4c(c3)OCO4)nc3ccccc3c2=O)c1	inconclusive: 3.26 µM [activator, full curve, poor fit]
O=C(/C=C/c1ccco1)N(Cc1ccc(Cl)cc1)C1CCS(=O)(=O)C1 (centres undefined)	inconclusive: 7.31 µM [activator, full curve, poor fit]
C/C(=N/NS(=O)(=O)c1cc(C)ccc1C)c1ccncc1	inconclusive: 6.51 µM [activator, single point]
O=[N+]([O-])c1cccnc1S(=O)(=O)c1ccccc1	active: 9.2 µM
Cc1ccc(C)c(NC(=S)c2ccccn2)c1	inconclusive: 20.6 µM [activator, partial curve, poor fit]
CC(=O)Nc1cccc(/C(C)=N/NC(=O)c2ccc(Cl)cc2Cl)c1	inconclusive: 7.31 µM [activator, partial curve, poor fit]
O=[N+]([O-])c1ccc(COc2ccc(-c3[nH]ncc3-c3ccc(Cl)cc3)c(O)c2)cc1	inconclusive: 16.4 µM [activator, single point]
Cc1ccc2cc(S(=O)(=O)NCCCN3CCOCC3)ccc2c1	inconclusive: 29.1 µM [activator, single point]
COc1ccc(CC(=O)NNC(=O)c2ccccn2)cc1	inconclusive: 23.1 µM [activator, single point]
Cc1ccc(OCCCCNC(C)c2ccccc2)c(C)c1 (centres undefined)	inconclusive: 20.6 µM [activator, single point]
Cc1ccc2c(c1)-c1[nH]c(=S)ncc1CS2	inactive
CC(C)(C)c1ccc(C(=O)NCC2CCCN2S(=O)(=O)c2ccccc2)cc1 (centres undefined)	inconclusive: 25.9 µM [activator, partial curve, poor fit]
CCC1CCc2sc(C(=O)NCC(c3ccc(OC)cc3)N3CCCC3)cc2C1 (centres undefined)	inconclusive: 18.4 µM [activator, single point]
O=C(N/N=C/c1sc2ccccc2c1O)c1cccc2ccccc12	inconclusive: 3.26 µM [activator, full curve, poor fit]
Cc1c(Cl)cccc1NC(=O)CCN1CCN(C)CC1	inconclusive: 0.13 µM [activator, full curve, poor fit]
COc1ccc(/C=N\NC(=O)c2ccccc2Br)cc1COc1ccc(F)cc1	inconclusive: 18.4 µM [activator, single point]
Cc1cccnc1NC(=S)NC(=O)c1cncc(Br)c1	inconclusive: 17.8 µM [activator, single point]
Clc1ccc(-c2nnc(-c3ccccc3Cl)o2)cc1	inactive
COc1ccc(NC(=O)c2sc3nc(N4CCOCC4)c4c(c3c2N)CC(C(C)C)OC4)c(OC)c1 (centres undefined)	inconclusive: 5.8 µM [activator, partial curve]
O=C(Cc1ccc(Br)cc1)NC1CCSC1=O (centres undefined)	inactive
O=C(C1CC(=O)N(c2ccc3c(c2)OCCO3)C1)N1CCN(S(=O)(=O)c2ccccc2F)CC1 (centres undefined)	inactive
CC1(c2ccc(Cl)cc2)NC(=O)N(CN2CCOCC2)C1=O (centres undefined)	inactive
Cc1ccc2nc(-c3cc(-c4ccccc4)no3)cn2c1	inconclusive: 29.1 µM [activator, single point]

Structure (SMILES)	Potency
CCCCCSc1nnc2c(n1)OC(C)N(C(C)=O)c1ccccc1-2 (centres undefined)	inactive
CCNc1ccc(Br)cc(C(=O)/C=C/c2ccc3c(c2)OCO3)c1=O	inconclusive: 25.9 µM [activator, single point]
CC(C)COC(=O)c1ccc(N)cc1	inactive
COc1ccc(S(=O)(=O)Nc2cccc3c2O[C@H](CN(C)Cc2ccccc2)[C@@H](C)CN([C@H](C)CO)C3=O)cc1	inconclusive: 0.0041 µM [activator, full curve, poor fit]
Cc1ccc(S(=O)(=O)Nc2ccc(-c3csc(-c4ccccc4)n3)cc2)cc1	inconclusive: 29.1 µM [activator, single point]
O=C(N/N=C/c1ccc[nH]1)c1cc(-c2ccc(Cl)cc2)nc2ccccc12	inconclusive: 32.6 µM [activator, partial curve, poor fit]
C=CCn1c(SC(C)C(N)=O)nc2sc(CC)cc2c1=O (centres undefined)	inconclusive: 29.1 µM [activator, single point]
N=C1SCC(=O)N1c1ccc(Cl)cc1	inconclusive: 29.1 µM [activator, single point]
Cc1cc(C)nc(Sc2nc(Nc3ccccc3)nc(Sc3nc(C)cc(C)n3)n2)n1	inconclusive: 32.6 µM [activator, partial curve, poor fit]
Cc1cccc(Nc2nnc(SCC(=O)NC(=O)Nc3ccc4c(c3)OCCO4)s2)c1	inconclusive: 20.6 µM [activator, single point]
COc1ccc(NC(=O)Nc2ccc(OC)c(OC)c2)c([N+](=O)[O-])c1	inactive
COc1ccc(NC(=O)c2cccs2)cc1OC	inconclusive: 31.6 µM [activator, partial curve, poor fit]
C=CCn1c(SCc2c(C)noc2C)nc2sc3c(c2c1=O)CCCC3	inconclusive: 29.1 µM [activator, single point]
O=C1Nc2ccccc2SC(c2ccccc2)C1O (centres undefined)	inactive
CCCc1ccc(C(=O)[C@@H]2[C@@H](C(C)=O)N3c4ccc(F)cc4C=C[C@@H]3[C@@]23C(=O)Nc2ccccc23)cc1	inconclusive: 0.461 µM [activator, full curve, poor fit]
O=C(N/N=C/c1ccc[nH]1)c1ccc(Cl)cc1	inconclusive: 0.116 µM [activator, full curve, poor fit]
CCc1nccn1S(=O)(=O)c1ccc(OC)c(OC)c1	inactive
CCN(CC)CCn1c2c(c(SCC(=O)Nc3ccc(C)c(F)c3)nc1=O)CCC2	inactive
CC1(c2nnc(-c3ccccc3)o2)CC(c2cccc(Cl)c2)=NO1 (centres undefined)	inactive
CCn1c(SCC(=O)N(C)C)nc2cc(S(=O)(=O)N3CCOCC3)ccc21	inactive
O=C(NCc1ccccn1)[C@H]1C[C@@H]1[C@H](NP(=O)(c1ccccc1)c1ccccc1)c1ccccc1	inactive
CCc1c(C(=O)N/N=C/c2cccs2)nnn1-c1nonc1N	inactive
C(=C\c1ccco1)/c1ccc2ccccc2n1	inactive
